Results taken from the supplement of paper PMC4604168 (melanoma cell lines).
The list shows a part of the results. Repeats are few or missing, and single values can be far off.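 Cells were imaged in 1,536-well plates, and nuclei stained with an antibody against cleaved PARP were counted against all DNA-stained nuclei to give the apoptosis fraction. Screening doses were chosen to leave most cells alive, and resting and induced cleaved-PARP levels differ strongly between cell lines.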

System: COLO829
Experiment: cleaved PARP positive nuclei fraction relative to DMSO control; melanoma cells; higher = more apoptosis
Conditions: library dose: low library concentration; 72 h

Row | SMILES | cleaved PARP positive nuclei fraction
1 | O=C(CCCCCCC(=O)Nc1ccccc1)NO [vorinostat] + CCCCCCCCCCCC1=C(O)C(=O)C=C(O)C1=O [Embelin] (first compound 0.08 µM, partner dose 1.2 µM) | 105%
2 | Cn1nnc2c(C(N)=O)ncn2c1=O [temozolomide] + Cn1cc(/C=C2\C(=O)Nc3cccnc32)c2ccccc21 [GW441756] (first compound 2 µM, partner dose 0.4 µM) | 116%
3 | Nc1cccc2c1CN(C1CCC(=O)NC1=O)C2=O (centres undefined) [lenalidomide] + COc1cc2ncnc(Nc3ccc(Oc4ccccc4)cc3)c2cc1OC [SrcI1] (first compound 1 µM, partner dose 2 µM) | 153%
4 | COc1cc(Nc2ncc(F)c(Nc3ccc4c(n3)NC(=O)C(C)(C)O4)n2)cc(OC)c1OC [Tamatinib] + CCc1ccc(CCOc2ccc(CC3SC(=O)NC3=O)cc2)nc1 [pioglitazone] (first compound 0.4 µM, partner dose 2 µM) | 62.8%
5 | Cc1nc(Nc2ncc(C(=O)Nc3c(C)cccc3Cl)s2)cc(N2CCN(CCO)CC2)n1 [dasatanib] + COc1cc(N2CCC(N3CCN(C)CC3)CC2)ccc1Nc1ncc(Cl)c(Nc2ccccc2S(=O)(=O)C(C)C)n1 [NVP-TAE684] (first compound 0.004 µM, partner dose 0.08 µM) | 104%
6 | Cn1c(Nc2ccc(C(F)(F)F)cc2)nc2cc(Oc3ccnc(-c4ncc(C(F)(F)F)[nH]4)c3)ccc21 + Cc1cc([N+](=O)[O-])ccc1NS(=O)(=O)c1cc(Cl)ccc1Cl [FH535] (first compound 0.08 µM, partner dose 1 µM) | 111%
7 | O=C(CCCCCCC(=O)Nc1ccccc1)NO [vorinostat] + O=S(=O)(c1ccccc1)N(CC(F)(F)F)c1ccc(C(O)(C(F)(F)F)C(F)(F)F)cc1 [T0901317] (first compound 0.08 µM, partner dose 1.4 µM) | 102%
8 | CC(C)(C)c1cnc(CSc2cnc(NC(=O)C3CCNCC3)s2)o1 + CCc1ccc(CCOc2ccc(CC3SC(=O)NC3=O)cc2)nc1 [pioglitazone] (first compound 0.01 µM, partner dose 2 µM) | 194%
9 | COc1cc(Nc2ncc(F)c(Nc3ccc4c(n3)NC(=O)C(C)(C)O4)n2)cc(OC)c1OC [Tamatinib] + Cn1cc(/C=C2\C(=O)Nc3cccnc32)c2ccccc21 [GW441756] (first compound 0.4 µM, partner dose 0.4 µM) | 160%
10 | C#Cc1cccc(Nc2ncnc3cc(OCCOC)c(OCCOC)cc23)c1 [erlotinib] + N#Cc1c(O)c2c(-c3ccc(-c4ccccc4O)cc3)csc2[nH]c1=O [A769662] (first compound 0.8 µM, partner dose 2 µM) | 86.6%
11 | OCCn1cc(-c2cnc3nnn(Cc4ccc5ncccc5c4)c3n2)cn1 + COc1cc(N2CCC(N3CCN(C)CC3)CC2)ccc1Nc1ncc(Cl)c(Nc2ccccc2S(=O)(=O)C(C)C)n1 [NVP-TAE684] (first compound 1 µM, partner dose 0.08 µM) | 138%
12 | O=C(Nc1cccc(Cl)c1)Nc1ncc(CCNc2ncnc3ccsc23)s1 + COc1ccc(COc2ccc(Cc3cnc(N)nc3N)cc2OC)cc1 [GW2580] (first compound 0.0008 µM, partner dose 1 µM) | 92.4%
13 | Cc1nc(Nc2ncc(C(=O)Nc3c(C)cccc3Cl)s2)cc(N2CCN(CCO)CC2)n1 [dasatanib] + O=C1NC(=O)/C(=C/c2ccc(-c3ccc(F)cc3O)o2)S1 [AS252424] (first compound 0.004 µM, partner dose 1 µM) | 128%
14 | C[C@]1(c2nc3c(C(N)=O)cccc3[nH]2)CCCN1 [Veliparib] + Cc1cc([N+](=O)[O-])ccc1NS(=O)(=O)c1cc(Cl)ccc1Cl [FH535] (first compound 1.4 µM, partner dose 1 µM) | 103%
15 | C[C@@H]1CCN(C(=O)CC#N)C[C@@H]1N(C)c1ncnc2[nH]ccc12 + COc1cc2ncnc(Nc3ccc(Oc4ccccc4)cc3)c2cc1OC [SrcI1] (first compound 1 µM, partner dose 2 µM) | 73.8%
16 | CC1(C)NC(=O)N(c2ccc([N+](=O)[O-])c(C(F)(F)F)c2)C1=O [nilutamide] + c1cc(-c2cnn3cc(-c4ccc(OCCN5CCCCC5)cc4)cnc23)ccn1 [Dorsomorphin] (first compound 1 µM, partner dose 0.4 µM) | 114%
17 | C[C@@H]1CCN(C(=O)CC#N)C[C@@H]1N(C)c1ncnc2[nH]ccc12 + c1cc(-c2cnn3cc(-c4ccc(OCCN5CCCCC5)cc4)cnc23)ccn1 [Dorsomorphin] (first compound 1 µM, partner dose 0.4 µM) | 57.4%
18 | NC(=O)Nc1cc(-c2cccc(F)c2)sc1C(=O)N[C@H]1CCCNC1 + O=S(=O)(c1ccccc1)N(CC(F)(F)F)c1ccc(C(O)(C(F)(F)F)C(F)(F)F)cc1 [T0901317] (first compound 0.02 µM, partner dose 1.4 µM) | 52.4%
19 | O=C(Nc1cccc(Cl)c1)Nc1ncc(CCNc2ncnc3ccsc23)s1 + COc1cc(N2CCC(N3CCN(C)CC3)CC2)ccc1Nc1ncc(Cl)c(Nc2ccccc2S(=O)(=O)C(C)C)n1 [NVP-TAE684] (first compound 0.0008 µM, partner dose 0.08 µM) | 61.5%
20 | C[C@]1(c2nc3c(C(N)=O)cccc3[nH]2)CCCN1 [Veliparib] + O=S(=O)(c1ccccc1)N(CC(F)(F)F)c1ccc(C(O)(C(F)(F)F)C(F)(F)F)cc1 [T0901317] (first compound 1.4 µM, partner dose 1.4 µM) | 102%
21 | Cc1nc(Nc2ncc(C(=O)Nc3c(C)cccc3Cl)s2)cc(N2CCN(CCO)CC2)n1 [dasatanib] + CCc1ccc(CCOc2ccc(CC3SC(=O)NC3=O)cc2)nc1 [pioglitazone] (first compound 0.004 µM, partner dose 2 µM) | 55.9%
22 | CC1(C)NC(=O)N(c2ccc([N+](=O)[O-])c(C(F)(F)F)c2)C1=O [nilutamide] + O=c1cc(-c2cccc3c2Sc2ccccc2S3)oc(N2CCOCC2)c1 [KU55933] (first compound 1 µM, partner dose 1 µM) | 88.3%
23 | COc1cc(Nc2ncc(F)c(Nc3ccc4c(n3)NC(=O)C(C)(C)O4)n2)cc(OC)c1OC [Tamatinib] + Oc1nc(-c2ccc(C(F)(F)F)cc2)nc2c1CSCC2 [XAV939] (first compound 0.4 µM, partner dose 2 µM) | 155%
24 | O=C(CCCCCCC(=O)Nc1ccccc1)NO [vorinostat] + O=C(O)C(=O)Nc1sc2c(c1C(=O)O)CCNC2 [TCS401] (first compound 0.08 µM, partner dose 1.66667 µM) | 183%

Taken from above:
cleaved PARP positive nuclei fraction, C[C@@H]1CCN(C(=O)CC#N)C[C@@H]1N(C)c1ncnc2[nH]ccc12 + c1cc(-c2cnn3cc(-c4ccc(OCCN5CCCCC5)cc4)cnc23)ccn1 [Dorsomorphin] (first compound 1 µM, partner dose 0.4 µM) is entered as 57.4%
cleaved PARP positive nuclei fraction, COc1cc(Nc2ncc(F)c(Nc3ccc4c(n3)NC(=O)C(C)(C)O4)n2)cc(OC)c1OC [Tamatinib] + Cn1cc(/C=C2\C(=O)Nc3cccnc32)c2ccccc21 [GW441756] (first compound 0.4 µM, partner dose 0.4 µM) is entered as 160%
